Source: patent publication US20150074844A1
These are yes or no findings as the source states them, for the method shown. For some assays here: Binding seen in cells or lysates may run through a third protein. Some results given as binding are weak or reduced against the parent protein; the word gives no strength. Sequences can lack the tags named with a protein. One block for each binder: values may come before it.

Amino acid sequences for entries named in this document (tags omitted). A change or cut given only in a name is not applied to a line headed by its entry.
UniProt Q8VZS8: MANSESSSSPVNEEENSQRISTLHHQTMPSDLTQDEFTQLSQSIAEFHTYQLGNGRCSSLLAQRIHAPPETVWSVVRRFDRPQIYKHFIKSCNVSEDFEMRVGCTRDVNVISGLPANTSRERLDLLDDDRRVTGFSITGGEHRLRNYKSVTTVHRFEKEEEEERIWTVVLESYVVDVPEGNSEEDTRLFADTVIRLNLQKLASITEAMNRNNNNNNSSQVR
UniProt O04719: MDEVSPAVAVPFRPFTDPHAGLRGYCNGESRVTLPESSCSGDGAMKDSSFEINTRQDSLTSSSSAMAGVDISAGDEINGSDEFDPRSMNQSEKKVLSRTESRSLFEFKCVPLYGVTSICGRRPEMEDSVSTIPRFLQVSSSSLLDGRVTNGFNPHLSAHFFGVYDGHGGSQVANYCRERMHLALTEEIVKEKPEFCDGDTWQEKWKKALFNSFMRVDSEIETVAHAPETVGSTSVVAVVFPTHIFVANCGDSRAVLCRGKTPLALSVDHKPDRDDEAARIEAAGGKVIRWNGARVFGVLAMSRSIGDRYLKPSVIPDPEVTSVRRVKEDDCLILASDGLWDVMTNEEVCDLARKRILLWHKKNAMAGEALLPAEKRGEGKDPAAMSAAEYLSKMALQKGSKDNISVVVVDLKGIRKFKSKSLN

Assays:
[1] = biological target: T1, ABI1 fused to the GAL4-activating domain (AD) (Arabidopsis), P49597; assay: yeast two-hybrid, growth on media lacking His and His/Ade, with and without ABA (ABA-independent); settings: remark: other sources report otherwise
T1 chain: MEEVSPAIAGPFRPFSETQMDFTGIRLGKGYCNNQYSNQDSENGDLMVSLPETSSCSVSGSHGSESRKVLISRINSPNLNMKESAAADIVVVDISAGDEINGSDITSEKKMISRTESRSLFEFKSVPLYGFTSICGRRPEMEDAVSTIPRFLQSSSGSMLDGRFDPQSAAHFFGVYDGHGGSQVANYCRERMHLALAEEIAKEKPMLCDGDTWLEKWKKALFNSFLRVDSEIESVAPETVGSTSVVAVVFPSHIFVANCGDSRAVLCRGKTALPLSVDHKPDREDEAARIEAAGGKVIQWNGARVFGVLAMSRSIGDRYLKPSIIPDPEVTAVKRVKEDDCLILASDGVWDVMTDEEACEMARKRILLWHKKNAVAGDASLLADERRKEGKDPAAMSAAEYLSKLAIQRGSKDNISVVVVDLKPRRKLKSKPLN

[2] = biological target: T2, GST-tagged PYL2 (Arabidopsis thaliana) (UniProt O80992); assay: His pull-down of purified recombinant proteins
T2 sequence: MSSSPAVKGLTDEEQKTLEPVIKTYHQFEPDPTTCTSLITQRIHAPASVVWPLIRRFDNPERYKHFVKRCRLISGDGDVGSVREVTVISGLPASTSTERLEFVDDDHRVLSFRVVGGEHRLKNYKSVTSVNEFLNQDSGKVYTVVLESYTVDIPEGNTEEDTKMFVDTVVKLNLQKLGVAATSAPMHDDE

[3] = biological target: GST-tagged PYL1 (Arabidopsis thaliana) (UniProt Q8VZS8); assay: His pull-down of purified recombinant proteins
[4] = biological target: T3, AHG1 without tag (purified recombinant) (Arabidopsis) (UniProt Q9FLI3); assay: His pull-down of purified recombinant proteins, SDS-PAGE/Coomassie, with or without 200 µM ABA
T3 sequence (looked up): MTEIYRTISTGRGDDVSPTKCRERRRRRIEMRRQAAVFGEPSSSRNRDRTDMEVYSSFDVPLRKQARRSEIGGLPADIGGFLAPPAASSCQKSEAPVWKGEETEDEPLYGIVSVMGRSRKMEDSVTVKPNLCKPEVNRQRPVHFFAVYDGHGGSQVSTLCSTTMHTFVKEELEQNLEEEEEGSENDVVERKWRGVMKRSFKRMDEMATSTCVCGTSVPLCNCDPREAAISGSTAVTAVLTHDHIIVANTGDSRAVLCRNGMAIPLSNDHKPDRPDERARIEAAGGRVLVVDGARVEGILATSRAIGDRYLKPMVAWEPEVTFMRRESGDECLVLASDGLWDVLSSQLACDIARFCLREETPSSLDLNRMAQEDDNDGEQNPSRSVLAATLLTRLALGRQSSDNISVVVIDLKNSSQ

[5] = biological target: ABI2 without tag (purified recombinant) (Arabidopsis) (UniProt O04719); assay: as above
[6] = biological target: T4, PP2CA without tag (purified recombinant) (Arabidopsis) (UniProt P49598); assay: as above
T4 sequence (looked up): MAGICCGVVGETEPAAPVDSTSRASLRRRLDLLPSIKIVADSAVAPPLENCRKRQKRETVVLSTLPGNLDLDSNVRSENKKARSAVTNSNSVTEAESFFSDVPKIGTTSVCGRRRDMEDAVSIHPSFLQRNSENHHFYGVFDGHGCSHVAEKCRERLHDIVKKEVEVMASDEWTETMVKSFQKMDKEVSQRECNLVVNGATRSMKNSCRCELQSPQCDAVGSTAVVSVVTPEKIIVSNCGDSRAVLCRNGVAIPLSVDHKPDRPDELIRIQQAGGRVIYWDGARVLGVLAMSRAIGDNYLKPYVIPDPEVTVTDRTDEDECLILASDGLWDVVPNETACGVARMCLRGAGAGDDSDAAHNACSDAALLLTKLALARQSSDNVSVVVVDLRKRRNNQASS

[7] = biological target: T5, ABI1-HA (Arabidopsis), P49597; assay: co-IP from protoplasts with anti-HA agarose, western blot; with or without 10 µM ABA; settings: remark: other sources report otherwise
T5 chain: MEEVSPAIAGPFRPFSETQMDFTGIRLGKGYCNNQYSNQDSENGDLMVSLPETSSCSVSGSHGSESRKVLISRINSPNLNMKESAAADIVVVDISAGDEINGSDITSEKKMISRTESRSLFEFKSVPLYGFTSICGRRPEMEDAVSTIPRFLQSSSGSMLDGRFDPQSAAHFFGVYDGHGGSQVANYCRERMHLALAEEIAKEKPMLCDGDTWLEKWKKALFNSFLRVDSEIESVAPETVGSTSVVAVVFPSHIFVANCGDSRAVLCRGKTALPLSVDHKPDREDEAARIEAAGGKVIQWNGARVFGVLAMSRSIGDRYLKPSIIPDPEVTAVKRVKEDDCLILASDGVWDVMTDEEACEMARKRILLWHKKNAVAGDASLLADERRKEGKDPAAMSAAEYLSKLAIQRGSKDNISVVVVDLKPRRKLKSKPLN

[8] = biological target: T6, ABI1 without tag (purified recombinant) (Arabidopsis), P49597; assay: His pull-down of purified recombinant proteins, SDS-PAGE/Coomassie, with or without 200 µM ABA; settings: remark: other sources report otherwise
T6 chain: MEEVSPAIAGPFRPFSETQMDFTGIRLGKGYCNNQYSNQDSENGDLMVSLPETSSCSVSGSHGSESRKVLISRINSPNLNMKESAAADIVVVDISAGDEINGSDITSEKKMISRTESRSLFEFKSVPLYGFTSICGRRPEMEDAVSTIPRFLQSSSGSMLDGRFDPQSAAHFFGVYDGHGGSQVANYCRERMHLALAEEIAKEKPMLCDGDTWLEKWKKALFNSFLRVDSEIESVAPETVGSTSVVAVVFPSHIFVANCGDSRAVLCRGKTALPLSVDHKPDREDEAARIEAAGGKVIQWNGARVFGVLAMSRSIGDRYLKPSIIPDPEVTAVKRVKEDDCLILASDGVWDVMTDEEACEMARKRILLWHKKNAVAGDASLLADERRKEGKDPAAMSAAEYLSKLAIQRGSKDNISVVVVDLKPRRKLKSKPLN

- binding [1]: binds
B1: PYL13 fused to the GAL4-DNA-binding domain (BD), Q9SN51 1-164 (protein, not shown: small tags and cut ends)
chain: MESSKQKRCRSSVVETIEAPLPLVWSILRSFDKPQAYQRFVKSCTMRSGGGGGKGGEGKGSVRDVTLVSGFPADFSTERLEELDDESHVMVVSIIGGNHRLVNYKSKTKVVASPEDMAKKTVVVESYVVDVPEGTSEEDTIFFVDNIIRYNLTSLAKLTKKMMK

- binding [2]: binds
- binding [3]: binds
- binding [4]: binds
- binding [5]: binds
- binding [6]: binds
B2: His-tagged PYL13 (protein, not shown: small tags and cut ends)
chain: MESSKQKRCRSSVVETIEAPLPLVWSILRSFDKPQAYQRFVKSCTMRSGGGGGKGGEGKGSVRDVTLVSGFPADFSTERLEELDDESHVMVVSIIGGNHRLVNYKSKTKVVASPEDMAKKTVVVESYVVDVPEGTSEEDTIFFVDNIIRYNLTSLAKLTKKMMK

- binding [7]: binds
B3: c-myc-tagged PYL13, Q9SN51 1-164 (protein, not shown: small tags and cut ends)
chain: MESSKQKRCRSSVVETIEAPLPLVWSILRSFDKPQAYQRFVKSCTMRSGGGGGKGGEGKGSVRDVTLVSGFPADFSTERLEELDDESHVMVVSIIGGNHRLVNYKSKTKVVASPEDMAKKTVVVESYVVDVPEGTSEEDTIFFVDNIIRYNLTSLAKLTKKMMK

- binding [8]: binds
B4: His-tagged PYL13, Q9SN51 1-164 (protein, not shown: small tags and cut ends)
chain: MESSKQKRCRSSVVETIEAPLPLVWSILRSFDKPQAYQRFVKSCTMRSGGGGGKGGEGKGSVRDVTLVSGFPADFSTERLEELDDESHVMVVSIIGGNHRLVNYKSKTKVVASPEDMAKKTVVVESYVVDVPEGTSEEDTIFFVDNIIRYNLTSLAKLTKKMMK
